Among the data in publication PMC8567046 are binding values, retold here.

By UniProt entry, the sequences of proteins in these tests, tags left out.
UniProt Q9NRG4: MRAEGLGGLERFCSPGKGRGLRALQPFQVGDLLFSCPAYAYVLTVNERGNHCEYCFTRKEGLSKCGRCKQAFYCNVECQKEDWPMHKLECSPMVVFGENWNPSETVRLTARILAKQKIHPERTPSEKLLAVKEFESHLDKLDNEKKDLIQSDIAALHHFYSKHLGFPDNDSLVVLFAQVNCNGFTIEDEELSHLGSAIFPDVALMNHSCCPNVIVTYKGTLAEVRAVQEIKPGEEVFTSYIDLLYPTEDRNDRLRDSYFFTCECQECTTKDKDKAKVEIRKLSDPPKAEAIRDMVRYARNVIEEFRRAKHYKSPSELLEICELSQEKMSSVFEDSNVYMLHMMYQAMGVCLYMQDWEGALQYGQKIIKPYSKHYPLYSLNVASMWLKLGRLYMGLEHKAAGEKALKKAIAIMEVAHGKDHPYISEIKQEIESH

Results are given in words; binding and its absence hold for the method and conditions named. Binding seen in cells or lysates may run through a third protein. Some entries that bind do so weakly or less than the wild type. Tags and fused reporters may be left off the sequences shown.

The target of this experiment is T1, His-TRAF2 (UniProt Q12933).
T1 sequence: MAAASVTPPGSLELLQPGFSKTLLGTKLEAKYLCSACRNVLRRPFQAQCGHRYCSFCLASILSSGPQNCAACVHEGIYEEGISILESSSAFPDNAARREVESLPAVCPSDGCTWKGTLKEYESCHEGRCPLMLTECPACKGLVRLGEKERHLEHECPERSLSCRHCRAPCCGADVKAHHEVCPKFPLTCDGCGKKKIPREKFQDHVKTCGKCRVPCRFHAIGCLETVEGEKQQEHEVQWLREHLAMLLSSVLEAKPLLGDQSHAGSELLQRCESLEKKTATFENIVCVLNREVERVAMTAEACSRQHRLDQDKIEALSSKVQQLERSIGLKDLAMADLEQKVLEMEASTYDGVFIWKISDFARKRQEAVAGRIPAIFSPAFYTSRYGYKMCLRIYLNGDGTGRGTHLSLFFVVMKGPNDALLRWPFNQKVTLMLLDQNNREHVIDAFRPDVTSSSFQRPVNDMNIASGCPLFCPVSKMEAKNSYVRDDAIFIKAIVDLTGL
The experiment in a line: co-IP; 293T cells transfected with His-TRAF2 and Myc-SMYD (1-5) plasmids; Co-IP with antibodies against His or Myc.

Regarding “Myc-SMYD2 (from UniProt Q9NRG4 1-433) (enzyme)”, the binding result was “binds”.

B1: Myc-SMYD3 (enzyme, UniProt Q9H7B4 1-428)
chain: MEPLKVEKFATAKRGNGLRAVTPLRPGELLFRSDPLAYTVCKGSRGVVCDRCLLGKEKLMRCSQCRVAKYCSAKCQKKAWPDHKRECKCLKSCKPRYPPDSVRLLGRVVFKLMDGAPSESEKLYSFYDLESNINKLTEDKKEGLRQLVMTFQHFMREEIQDASQLPPAFDLFEAFAKVICNSFTICNAEMQEVGVGLYPSISLLNHSCDPNCSIVFNGPHLLLRAVRDIEVGEELTICYLDMLMTSEERRKQLRDQYCFECDCFRCQTQDKDADMLTGDEQVWKEVQESLKKIEELKAHWKWEQVLAMCQAIISSNSERLPDINIYQLKVLDCAMDACINLGLLEEALFYGTRTMEPYRIFFPGSHPVRGVQVMKVGKLQLHQGMFPQAMKNLRLAFDIMRVTHGREHSLIEDLILLLEECDANIRAS
For B1, the binding entry was “no binding”.

B2: Myc-SMYD5 (enzyme, UniProt Q6GMV2 1-418)
chain: MAASMCDVFSFCVGVAGRARVSVEVRFVSSAKGKGLFATQLIRKGETIFVERPLVAAQFLWNALYRYRACDHCLRALEKAEENAQRLTGKPGQVLPHPELCTVRKDLHQNCPHCQVMYCSAECRLAATEQYHQVLCPGPSQDDPLHPLNKLQEAWRSIHYPPETASIMLMARMVATVKQAKDKDRWIRLFSQFCNKTANEEEEIVHKLLGDKFKGQLELLRRLFTEALYEEAVSQWFTPDGFRSLFALVGTNGQGIGTSSLSQWVHACDTLELKPQDREQLDAFIDQLYKDIEAATGEFLNCEGSGLFVLQSCCNHSCVPNAETSFPENNFLLHVTALEDIKPGEEICISYLDCCQRERSRHSRHKILRENYLFVCSCPKCLAEADEPNVTSEEEEEEEEEEEGEPEDAELGDEMTDV
For B2, the binding entry was “no binding”.

B3: Myc-SMYD4 (enzyme, UniProt Q8IYR2 1-804)
chain: MDLPVDEWKSYLLQKWASLPTSVQVTISTAETLRDIFLHSSSLLQPEDELFLKRLSKGYLVGKDSDAPLFYREEGNKKFQEKDYTGAAVLYSKGVSHSRPNTEDMSLCHANRSAALFHLGQYETCLKDINRAQTHGYPERLQPKIMLRKAECLVALGRLQEASQTISDLERNFTATPALADVLPQTLQRNLHRLKMKMQEKDSLTESFPAALAKTLEDAALREENEQLSNASSSIGLCVDPLKGRCLVATKDILPGELLVQEDAFVSVLNPGELPPPHHGLDSKWDTRVTNGDLYCHRCLKHTLATVPCDGCSYAKYCSQECLQQAWELYHRTECPLGGLLLTLGVFCHIALRLTLLVGFEDVRKIITKLCDKISNKDICLPESNNQVKTLNYGLGESEKNGNIVETPIPGCDINGKYENNYNAVFNLLPHTENHSPEHKFLCALCVSALCRQLEAASLQAIPTERIVNSSQLKAAVTPELCPDVTIWGVAMLRHMLQLQCNAQAMTTIQHTGPKGSIVTDSRQVRLATGIFPVISLLNHSCSPNTSVSFISTVATIRASQRIRKGQEILHCYGPHKSRMGVAERQQKLRSQYFFDCACPACQTEAHRMAAGPRWEAFCCNSCGAPMQGDDVLRCGSRSCAESAVSRDHLVSRLQDLQQQVRVAQKLLRDGELERAVQRLSGCQRDAESFLWAEHAVVGEIADGLARACAALGDWQKSATHLQRSLYVVEVRHGPSSVEMGHELFKLAQIFFNGFAVPEALSTIQKAEEVLSLHCGPWDDEIQELQKMKSCLLDLPPTPVGPAL
As to B3, the binding result is on record as “no binding”.
